Results are given in words; binding and its absence hold for the method and conditions named. In cells and extracts the contact can be indirect. Some binding calls cover weakened binding; strength is not graded here.
B1: phospholipase D1 (PLD1) (enzyme, UniProt Q13393 1-1074)
chain: MSLKNEPRVNTSALQKIAADMSNIIENLDTRELHFEGEEVDYDVSPSDPKIQEVYIPFSAIYNTQGFKEPNIQTYLSGCPIKAQVLEVERFTSTTRVPSINLYTIELTHGEFKWQVKRKFKHFQEFHRELLKYKAFIRIPIPTRRHTFRRQNVREEPREMPSLPRSSENMIREEQFLGRRKQLEDYLTKILKMPMYRNYHATTEFLDISQLSFIHDLGPKGIEGMIMKRSGGHRIPGLNCCGQGRACYRWSKRWLIVKDSFLLYMKPDSGAIAFVLLVDKEFKIKVGKKETETKYGIRIDNLSRTLILKCNSYRHARWWGGAIEEFIQKHGTNFLKDHRFGSYAAIQENALAKWYVNAKGYFEDVANAMEEANEEIFITDWWLSPEIFLKRPVVEGNRWRLDCILKRKAQQGVRIFIMLYKEVELALGINSEYTKRTLMRLHPNIKVMRHPDHVSSTVYLWAHHEKLVIIDQSVAFVGGIDLAYGRWDDNEHRLTDVGSVKRVTSGPSLGSLPPAAMESMESLRLKDKNEPVQNLPIQKSIDDVDSKLKGIGKPRKFSKFSLYKQLHRHHLHDADSISSIDSTSSYFNHYRSHHNLIHGLKPHFKLFHPSSESEQGLTRPHADTGSIRSLQTGVGELHGETRFWHGKDYCNFVFKDWVQLDKPFADFIDRYSTPRMPWHDIASAVHGKAARDVARHFIQRWNFTKIMKSKYRSLSYPFLLPKSQTTAHELRYQVPGSVHANVQLLRSAADWSAGIKYHEESIHAAYVHVIENSRHYIYIENQFFISCADDKVVFNKIGDAIAQRILKAHRENQKYRVYVVIPLLPGFEGDISTGGGNALQAIMHFNYRTMCRGENSILGQLKAELGNQWINYISFCGLRTHAELEGNLVTELIYVHSKLLIADDNTVIIGSANINDRSMLGKRDSEMAVIVQDTETVPSVMDGKEYQAGRFARGLRLQCFRVVLGYLDDPSEDIQDPVSDKFFKEVWVSTAARNATIYDKVFRCLPNDEVHNLIQLRDFINKPVLAKEDPIRAEEELKKIRGFLVQFPFYFLSEESLLPSVGTKEAIVPMEVWT

By UniProt entry, the sequences of proteins in these tests, tags left out. Where a name states a change or a piece, a line headed by the entry shows the natural chain unless it says otherwise.
UniProt P61586: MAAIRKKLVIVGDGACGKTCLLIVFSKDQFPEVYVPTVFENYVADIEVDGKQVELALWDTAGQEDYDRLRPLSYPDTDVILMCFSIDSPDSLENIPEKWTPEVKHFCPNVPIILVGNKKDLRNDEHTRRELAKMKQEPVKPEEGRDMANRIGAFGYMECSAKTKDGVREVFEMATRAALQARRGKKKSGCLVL
UniProt P35579: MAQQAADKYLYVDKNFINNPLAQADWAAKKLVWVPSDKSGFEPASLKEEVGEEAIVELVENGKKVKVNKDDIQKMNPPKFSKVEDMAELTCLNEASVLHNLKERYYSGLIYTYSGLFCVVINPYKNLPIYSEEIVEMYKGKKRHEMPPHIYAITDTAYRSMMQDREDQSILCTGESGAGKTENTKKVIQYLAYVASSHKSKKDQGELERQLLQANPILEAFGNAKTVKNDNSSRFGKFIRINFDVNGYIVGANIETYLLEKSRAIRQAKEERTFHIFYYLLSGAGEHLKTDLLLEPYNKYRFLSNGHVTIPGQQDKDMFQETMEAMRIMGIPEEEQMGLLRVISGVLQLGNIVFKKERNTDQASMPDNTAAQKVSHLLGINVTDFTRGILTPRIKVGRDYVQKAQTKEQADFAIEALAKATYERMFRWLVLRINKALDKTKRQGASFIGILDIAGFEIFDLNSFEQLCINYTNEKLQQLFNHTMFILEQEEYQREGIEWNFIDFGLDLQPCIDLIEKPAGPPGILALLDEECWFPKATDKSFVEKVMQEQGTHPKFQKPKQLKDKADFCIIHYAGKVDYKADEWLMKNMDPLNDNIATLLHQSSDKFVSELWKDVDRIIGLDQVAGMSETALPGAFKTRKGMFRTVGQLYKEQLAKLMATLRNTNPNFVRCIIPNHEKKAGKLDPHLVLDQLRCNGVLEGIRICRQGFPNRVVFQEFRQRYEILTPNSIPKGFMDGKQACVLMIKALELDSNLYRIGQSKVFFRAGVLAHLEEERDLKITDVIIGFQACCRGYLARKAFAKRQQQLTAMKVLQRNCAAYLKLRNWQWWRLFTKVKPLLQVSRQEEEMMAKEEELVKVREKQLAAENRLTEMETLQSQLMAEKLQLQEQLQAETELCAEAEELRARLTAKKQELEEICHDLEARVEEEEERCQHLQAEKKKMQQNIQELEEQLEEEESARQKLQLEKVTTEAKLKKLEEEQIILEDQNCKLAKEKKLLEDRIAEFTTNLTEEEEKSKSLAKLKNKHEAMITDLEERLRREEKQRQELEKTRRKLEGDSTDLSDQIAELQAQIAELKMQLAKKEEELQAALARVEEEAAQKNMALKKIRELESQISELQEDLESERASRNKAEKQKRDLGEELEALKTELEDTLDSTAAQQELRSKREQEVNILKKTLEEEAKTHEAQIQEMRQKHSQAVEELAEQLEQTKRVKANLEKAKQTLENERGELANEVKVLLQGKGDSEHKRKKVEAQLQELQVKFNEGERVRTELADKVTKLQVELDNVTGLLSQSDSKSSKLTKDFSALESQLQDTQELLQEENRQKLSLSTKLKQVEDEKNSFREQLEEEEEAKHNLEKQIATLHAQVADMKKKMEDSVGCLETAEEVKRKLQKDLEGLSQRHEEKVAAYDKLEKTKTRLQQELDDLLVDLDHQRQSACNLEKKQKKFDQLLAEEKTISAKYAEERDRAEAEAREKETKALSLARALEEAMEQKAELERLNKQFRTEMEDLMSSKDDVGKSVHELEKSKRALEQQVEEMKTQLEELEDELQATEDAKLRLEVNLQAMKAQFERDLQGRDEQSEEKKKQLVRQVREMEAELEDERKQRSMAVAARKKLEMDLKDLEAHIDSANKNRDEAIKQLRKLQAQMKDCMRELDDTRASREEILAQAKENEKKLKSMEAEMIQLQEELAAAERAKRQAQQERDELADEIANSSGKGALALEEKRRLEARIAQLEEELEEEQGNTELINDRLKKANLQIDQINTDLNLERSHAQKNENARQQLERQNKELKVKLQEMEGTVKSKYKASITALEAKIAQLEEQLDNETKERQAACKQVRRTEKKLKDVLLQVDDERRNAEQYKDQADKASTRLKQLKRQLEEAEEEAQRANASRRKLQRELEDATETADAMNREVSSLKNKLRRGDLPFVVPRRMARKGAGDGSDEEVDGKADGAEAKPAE

Key:
[1] = biological target: T1, phospholipase D1 (PLD1) (human (endogenous in A549)) (UniProt Q13393); test: co-IP; endogenous proteins; antibody to PLD1, p-Y42 RhoA or MYH9 with protein A/G-agarose beads; lysates of A549 cells untreated or stimulated with LPS (5 ug/mL, 24 h); 20 mM Tris pH 7.4, 120 mM NaCl, 1 mM MgCl2, 1% Nonidet P-40; antibody overnight at 4 C; immunoblot
T1 sequence: B1 chain

HA-RhoA WT = HA-RhoA WT (UniProt P61586); test: co-IP; A549 cells transfected with HA-RhoA WT, Y42E or Y42F for 24 h, serum-depleted 8 h, stimulated by LPS for 24 h; immunoprecipitation using the HA probe; PLD1 detected by Western blotting
HA-RhoA Y42E = HA-RhoA Y42E (UniProt P61586); test: as above
[2] = biological target: MYH9 (Myosin IIA, non-muscle myosin IIA) (human (endogenous in A549)) (UniProt P35579); test: co-IP; endogenous proteins; antibody to PLD1, p-Y42 RhoA or MYH9 with protein A/G-agarose beads; lysates of A549 cells untreated or stimulated with LPS (5 ug/mL, 24 h); 20 mM Tris pH 7.4, 120 mM NaCl, 1 mM MgCl2, 1% Nonidet P-40; antibody overnight at 4 C; immunoblot
[3] = biological target: p-Tyr42 RhoA (human (endogenous in A549)) (UniProt P61586); test: as above

Row | Molecule | binding [1] | binding (HA-RhoA WT) | binding (HA-RhoA Y42E) | binding [2] | binding [3]
1 | MYH9 (Myosin IIA, non-muscle myosin IIA) (from UniProt P35579 1-1960) | binds |  |  |  | 
2 | RhoA (from UniProt P61586 1-193) | binds |  |  |  | 
3 | p-Tyr42 RhoA (from UniProt P61586 1-193) | binds |  |  |  | 
4 | B1 |  | binds | binds | binds | binds

Reference: PMC10813223
